The chains behind the UniProt entries cited, without tags or fusion partners.
UniProt Q8NER1, whole entry, looked up: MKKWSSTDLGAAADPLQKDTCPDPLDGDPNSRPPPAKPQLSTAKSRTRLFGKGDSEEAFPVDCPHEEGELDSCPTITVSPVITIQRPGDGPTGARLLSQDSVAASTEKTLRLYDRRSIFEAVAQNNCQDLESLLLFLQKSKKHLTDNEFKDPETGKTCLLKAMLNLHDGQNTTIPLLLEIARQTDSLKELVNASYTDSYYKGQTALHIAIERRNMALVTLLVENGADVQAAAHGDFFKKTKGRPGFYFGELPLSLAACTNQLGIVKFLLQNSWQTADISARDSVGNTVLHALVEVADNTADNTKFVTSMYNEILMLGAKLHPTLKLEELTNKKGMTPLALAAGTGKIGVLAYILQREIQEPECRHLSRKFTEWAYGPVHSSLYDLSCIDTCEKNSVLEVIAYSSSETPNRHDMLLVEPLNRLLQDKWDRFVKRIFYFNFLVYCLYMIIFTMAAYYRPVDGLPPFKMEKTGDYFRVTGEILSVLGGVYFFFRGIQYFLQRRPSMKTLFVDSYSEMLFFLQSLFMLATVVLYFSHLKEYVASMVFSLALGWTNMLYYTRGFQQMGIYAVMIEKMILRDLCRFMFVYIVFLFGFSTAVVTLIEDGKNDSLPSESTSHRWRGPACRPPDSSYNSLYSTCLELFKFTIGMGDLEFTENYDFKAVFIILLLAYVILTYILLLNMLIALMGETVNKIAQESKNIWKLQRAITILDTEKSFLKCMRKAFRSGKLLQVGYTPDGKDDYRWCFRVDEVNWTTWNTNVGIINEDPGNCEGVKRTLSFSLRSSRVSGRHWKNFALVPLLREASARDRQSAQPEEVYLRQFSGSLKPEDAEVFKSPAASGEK

Screen size: about 320,000 compounds; about 620 (0.19%) were called active. The shares of active, inactive and inconclusive entries below differ from those in the screen. Rule as the data show it: active = activation above about 80%; inconclusive = between about 30% and that limit; inactive = weaker than that.
What follows are compounds tested against Transient receptor potential cation channel subfamily V member 1 (Homo sapiens) (UniProt Q8NER1) (assay: HTS Assay for Compounds that Act as Agonists of the Vanilloid Receptor 1). Settings: TRPV1-expressing cells, Fluo-8 calcium influx, agonist mode; at 8.33 µM, active compounds read high.
How it was run: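 Cells expressing TRPV1 were dye-loaded with Fluo-8 and read kinetically: 10 s baseline, 3 min after compound (agonist portion), then 2 min after EC20 capsaicin (allosteric enhancer portion). Calcium-bound dye fluorescence at 480/520 nm.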
In the case of `COc1ccc(-n2c(=S)[nH]c3cc(C(=O)NCc4ccc(F)cc4)ccc3c2=O)c(OC)c1`, the activation is reported as inactive: 3.37%. `NS(=O)(=O)c1cccc(NC(=O)c2cc3ccccc3o2)c1` was tested, and the activation was inconclusive: 62.2%. For `O=C(NCc1cccs1)c1cc(S(=O)(=O)N2CCOCC2)ccc1N1CCCC1`, the activation was inactive: 2.06%. In the case of `COc1ccc(S(=O)(=O)N2CCN(CC(=O)Nc3cc(OC)cc(OC)c3)CC2)cc1`, the activation is reported as inactive: -4.17%. In the case of `O=[N+]([O-])c1cccc(/C=C/c2ccc3cccc(O)c3n2)c1`, the activation is reported as inactive: 2.83%. `OCCCCCN=c1cc(-c2ccccc2)oc2ccc(Cl)cc12` was tested, and the activation was inconclusive: 39%. For `CCCS(=O)(=O)c1c(S(=O)(=O)CCC)c2cc(-c3ccncc3)ccn2c1C(=O)OC`, the activation was inconclusive: 56.2%. For `Cc1ccc(-c2nnc(Nc3ccc(CC(N)=O)cc3)c3ccccc23)cc1`, the activation was inconclusive: 40.5%. `CCOc1ccc(N2CC(O)(c3cccs3)[N+]3=C2CCCC3)cc1` (centres undefined) was tested, and the activation was inactive: -0.719%. For `COC(=O)Cc1ccc(NC(=O)c2cccs2)cc1`, the activation was inconclusive: 47.6%. `CSc1cccc(NC(=O)/C=C/c2ccccc2)c1` was tested, and the activation was inconclusive: 67.3%. `Cn1cc(Br)c(NC(=O)/C=C/C(=O)O)n1` was tested, and the activation was inactive: -1.6%. In the case of `Cc1cccc(NC(=O)c2ccc(C)c(S(=O)(=O)N3CCCCC3)c2)n1`, the activation is reported as inconclusive: 63.7%. For `COC(=O)c1sccc1NC(=O)Nc1cccc(OC)c1`, the activation was inconclusive: 35.6%. `O=C(Nc1ccc(C(=O)O)cc1)/C(=C\C=C\c1ccccc1)NC(=O)c1ccccc1Br` was tested, and the activation was inactive: -11.8%. With `CCOC(=O)/C=c1\s/c(=C\c2ccccc2C)c(=O)n1CC(=O)NCc1ccc2c(c1)OCO2` the activation was inactive: 7.08%. In the case of `COc1cc(C2C(C(=O)Nc3ccccc3C)=C(C)Nc3nc(SCc4cc(C)ccc4C)nn32)ccc1O` (centres undefined), the activation is reported as inactive: -2.7%. For `COc1cc2c(cc1OC)C(c1cc(Br)ccc1F)N(C(=O)CCl)CC2` (centres undefined), the activation was inactive: 6.46%. In the case of `Cc1ccc(-c2n[nH]c(=S)n2-c2ccccc2)cc1`, the activation is reported as inactive: 2.4%. In the case of `Cc1ccc(N2CC(C(=O)Nc3ccc4c(c3)OCCO4)CC2=O)cc1` (centres undefined), the activation is reported as inconclusive: 56.3%. For `Cc1[nH]c(=S)c(C#N)c(C)c1CC(=O)c1ccc(Br)cc1`, the activation was inactive: 2.76%. `COc1ccc(/C(O)=C/C(=O)C(=O)Nc2c(C)n(C)n(-c3ccccc3)c2=O)cc1` was tested, and the activation was inactive: 1.99%. For `CCCCc1nc(Cl)c(C#N)c2c1CSC(C)(C)C2`, the activation was inactive: 19%. In the case of `NC(=O)c1cccc(C(N)=O)n1`, the activation is reported as inactive: 0.981%. In the case of `O=C(OCc1ccc([N+](=O)[O-])cc1)C1CC(=O)N(Cc2ccccc2Cl)C1` (centres undefined), the activation is reported as inconclusive: 30.9%. With `C/C(=N\Nc1ccc([N+](=O)[O-])cc1)c1ccc(N2CCOCC2)cc1` the activation was inactive: 5.56%. In the case of `CCOc1ccccc1NC(=S)N1CCN(c2nc(-c3cccc(OC)c3)cs2)CC1`, the activation is reported as inactive: 0.48%. `CC1CCN(Cc2cc(=O)oc3ccc(C(C)C)cc23)CC1` was tested, and the activation was inconclusive: 54.4%. With `CCOC(=O)c1[nH]c2ccc(Br)cc2c1NC(=O)CCN1CCN(C(=O)OCC)CC1` the activation was inconclusive: 42%. `C/C(=N/Nc1nc(-c2ccccc2)cc(-c2ccccc2)n1)c1ccc(N)cc1` was tested, and the activation was inactive: 25.5%. For `COc1ccc(NS(=O)(=O)c2cc(NC(=O)c3ccc(C)s3)ccc2N2CCOCC2)cc1`, the activation was active: 88.2%. With `O=C(NCCNS(=O)(=O)c1ccccc1)c1cc(OCC(F)(F)F)ccc1OCC(F)(F)F` the activation was inconclusive: 31.8%. With `COc1ccc(NC(=O)c2cccs2)cc1` the activation was inconclusive: 32.6%. With `Fc1ccccc1CSc1nc2ccccc2[nH]1` the activation was inconclusive: 59.7%. `Cc1cc(/C=C(\C#N)C(N)=O)c(C)n1-c1ccc(N2CCOCC2)c([N+](=O)[O-])c1` was tested, and the activation was inactive: 7.53%. For `Cc1nn(-c2ccccc2)c(N2CCCC2)c1/C=N/NC(=O)c1cc(-c2ccccc2)nc2ccccc12`, the activation was inactive: -6.16%. In the case of `O=C(NC(=S)Nc1ccc(NC(=O)c2cccs2)cc1)c1ccco1`, the activation is reported as inactive: 2.09%. In the case of `Cc1cccc(NC(=O)c2ccc3c(c2)CCN3S(C)(=O)=O)c1`, the activation is reported as inconclusive: 66.3%. With `O=c1cc(-c2ccc(O)cc2)oc2ccc3ccccc3c12` the activation was inconclusive: 44%. `Cc1cc(C(=O)CCl)c(C)n1-c1cccc([N+](=O)[O-])c1` was tested, and the activation was inactive: -0.49%. In the case of `N=C1SCC(=O)N1/N=C/c1ccccc1`, the activation is reported as inactive: -1.43%. With `CC(=O)c1cc(F)c(N2CCN(C(=O)COc3ccc(F)cc3)CC2)cc1C` the activation was inconclusive: 69.7%. For `O=P(OC1CCCCC1)(OC1CCCCC1)C(O)c1ccccc1` (centres undefined), the activation was inconclusive: 46.2%. With `COc1cc2c(C(=O)Nc3ccc4c(c3)OCO4)cn(CC(C)C)c(=O)c2cc1OC` the activation was inconclusive: 41.5%. In the case of `O=C(CSc1nccn1-c1ccc(Cl)cc1)NCc1ccc2c(c1)OCO2`, the activation is reported as inconclusive: 36.5%. `Cc1ccc(N2CC(C(=O)Nc3ccc4c(c3)OCO4)CC2=O)cc1C` (centres undefined) was tested, and the activation was inconclusive: 57%. In the case of `Cc1cc(C)cc(-n2ncc3c2CCCC3NC(=O)c2cc(C)oc2C)c1` (centres undefined), the activation is reported as inconclusive: 47.5%. `CC(C)(C)/C(O)=C(/C#N)c1nc2ccccc2[nH]1` was tested, and the activation was inconclusive: 42.8%. For `O=C(OCC(=O)N1CCOCC1)c1ccccc1Cc1ccccc1`, the activation was inconclusive: 32%. With `CCOC(=O)c1cccc(Nc2ncnc3ccccc23)c1` the activation was inconclusive: 32.2%. `COC(=O)c1cc(/C=C/c2ccccc2)on1` was tested, and the activation was inconclusive: 39.6%. For `O=C(CSc1nnc2scc(-c3ccccc3)n12)N1CCN(Cc2ccccc2)CC1`, the activation was inactive: 14.9%. In the case of `CCCCOC(=O)Cn1c(=O)n(CC(=O)OCCCC)c2cc(C)ccc21`, the activation is reported as inconclusive: 39%. For `CNC(=O)CS(=O)CC(=O)Nc1cc(OCCOC)c(Cl)cc1Cl` (centres undefined), the activation was inactive: -0.661%. In the case of `CCN(C(=O)COC(=O)c1ccc(F)c(S(=O)(=O)N2CCOCC2)c1)C1CCS(=O)(=O)C1` (centres undefined), the activation is reported as inactive: -0.292%. With `COc1ccc(-c2ccnc(SCC(=O)Nc3ccccn3)n2)cc1` the activation was inactive: -1.58%. In the case of `O=C(NCCCc1ccccc1)c1cccc([N+](=O)[O-])c1`, the activation is reported as inconclusive: 43.6%. For `Cc1nc(Nc2ccc3c(c2)OCCO3)c2oc3ccccc3c2n1`, the activation was active: 81.5%. `COc1cccc(NC(=O)NC2CCCCCCC2)c1` was tested, and the activation was inconclusive: 65.2%. For `O=S(=O)(Cc1ccccc1Cl)CC(O)COc1ccccc1Cl` (centres undefined), the activation was inactive: 9.86%. For `CCCCc1c(O)c2ccccc2n(CCCC)c1=O`, the activation was inconclusive: 37%. With `CCn1c2ccccc2c2cc(NC(=O)C(=O)N3CCOCC3)ccc21` the activation was inconclusive: 70.3%. With `CC(=O)Nc1cccc(OCc2c(F)cccc2Cl)c1` the activation was inconclusive: 33.6%. In the case of `COCCNC(=O)COc1cccc(Oc2ccccc2)c1`, the activation is reported as inconclusive: 34.7%. In the case of `CC(C)NC(=O)N(Cc1ccc(Cl)cc1)Cc1cccs1`, the activation is reported as inconclusive: 33.3%. For `CCOC(=O)[C@H]1[C@H]2COc3ccccc3[C@@H]2N2C(=O)c3cc(OC)ccc3NC(=O)[C@@]12C`, the activation was inconclusive: 42.5%. In the case of `CC(C)CNC(=O)c1cc([N+](=O)[O-])ccc1N1CCCCC1`, the activation is reported as inconclusive: 30.5%. In the case of `COc1ccc(NC(=O)CSCc2ccc(C)cc2)cc1`, the activation is reported as inconclusive: 36%. In the case of `COc1ccc(/C=C2\SC(N3CCCCC3)=NC2=O)cc1`, the activation is reported as inactive: -2.16%. In the case of `CCn1c(C)csc1=NC(=O)c1ccccc1`, the activation is reported as inconclusive: 30.3%. In the case of `O=C(NC1CCCc2ccccc21)c1ccccc1OC(F)F` (centres undefined), the activation is reported as inconclusive: 37.2%. With `COc1cccc(CNC(=O)C2CCN(C(=O)N3CC(C)Oc4ccccc43)CC2)c1` (centres undefined) the activation was inactive: 17.3%. In the case of `COC(=O)c1cc(Cl)c(NC(=O)/C=C/c2ccc(Cl)cc2)cc1OC`, the activation is reported as inactive: 17.3%. `Cc1nc(N2CCCCC2C)c2c(C)c(C(=O)Nc3ccccc3C(F)(F)F)sc2n1` (centres undefined) was tested, and the activation was inconclusive: 30.4%. `CC1CCC(NC(=O)CSc2nnnn2C)CC1` (centres undefined) was tested, and the activation was inactive: 1.02%. For `O=C(C1=NN[C@@H]2C(=O)N(Cc3ccccc3)C(=O)[C@H]12)c1ccc(F)cc1`, the activation was inconclusive: 31.4%. `CCc1ccc(N(C(=O)c2snc(C(N)=O)c2N)C(C(=O)NC2CCCC2)c2ccco2)cc1` (centres undefined) was tested, and the activation was inconclusive: 34.2%. In the case of `CS(=O)(=O)c1ccc2nc(NC(=O)c3cccc(NS(=O)(=O)c4ccc(F)c(F)c4)c3)sc2c1`, the activation is reported as inconclusive: 38.1%. For `O=C(c1ccc(Cl)cc1)[C@@H]1[C@@H]2C(=O)N(c3ccc(Cl)cc3)C(=O)[C@@H]2C2c3ccccc3C=NN21` (some centres undefined), the activation was inactive: -1.22%. In the case of `O=C(N/N=C\C=C\c1ccco1)c1cc(-c2ccc3ccccc3c2)n[nH]1`, the activation is reported as inactive: -4.42%. In the case of `COc1cc2c(cc1NC(=O)CSc1nc3ccc(C)cc3[nH]1)oc1ccccc12`, the activation is reported as inconclusive: 36.5%. With `CC1(C)C(=O)OC(c2c(F)c(F)c(F)c(F)c2F)C2(CCCCC2)C1=O` (centres undefined) the activation was inconclusive: 31.4%. `Cc1ccc2cc(CN(CC3CCCO3)C(=O)NC3CCCCC3)c(=O)[nH]c2c1C` (centres undefined) was tested, and the activation was inconclusive: 42.4%. With `COc1ccc(CC(=O)NNS(=O)(=O)c2ccc3ccccc3c2)cc1OC` the activation was inconclusive: 37%. In the case of `CCCCCCc1cc2cc(-c3nnc(-c4ccccc4OC)o3)c(=O)oc2cc1O`, the activation is reported as inconclusive: 45.9%. For `O=C(c1ccc(-c2cccc(C(F)(F)F)c2)o1)N1CCOCC1`, the activation was active: 86%. `Cc1ccc(NC2CCCN(C(=O)CN3C(=O)c4ccccc4C3=O)C2)cc1C` (centres undefined) was tested, and the activation was inconclusive: 53.4%. In the case of `Cc1ccc2oc(C(=O)NCC3CCOCC3)c(C)c2c1`, the activation is reported as active: 83.5%. With `COc1ccc2nc(Nc3ccc4c(c3)OCO4)sc2c1` the activation was inconclusive: 34.1%.

— PubChem BioAssay AID540275 (National Center for Advancing Translational Sciences (NCATS), 2011)
Also: 0% is about no effect.
